Test results as given in article doi:10.1101/2020.09.16.299644.

Sequences of proteins named here, by UniProt entry; tags and fusion partners are left off. A change or cut given only in a name is not applied to a line headed by its entry.
UniProt P35997: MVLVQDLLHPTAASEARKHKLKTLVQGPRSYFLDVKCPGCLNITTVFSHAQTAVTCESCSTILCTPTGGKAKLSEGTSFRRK

Molecular target: Rps27 (S. cerevisiae (endogenous in strain BY4741)) (UniProt P35997)
Experiment: cryo-EM structure

B1: Rrp7 (protein, UniProt P25368 1-297)
chain: MGIEDISAMKNGFIVVPFKLPDHKALPKSQEASLHFMFAKRHQSSNSNESDCLFLVNLPLLSNIEHMKKFVGQLCGKYDTVSHVEELLYNDEFGLHEVDLSALTSDLMSSTDVNEKRYTPRNTALLKFVDAASINNCWNALKKYSNLHAKHPNELFEWTYTTPSFTTFVNFYKPLDIDYLKEDIHTHMAIFEQREAQAQEDVQSSIVDEDGFTLVVGKNTKSLNSIRKKILNKNPLSKHENKAKPISNIDKKAKKDFYRFQVRERKKQEINQLLSKFKEDQERIKVMKAKRKFNPYT
binding: binds

These are yes or no findings as the source states them, for the method shown. A result given as binding can be weak or reduced; the word gives no strength.
